The record followed here is publication PMC8689518.

Amino acid sequences for entries named in this document (tags omitted).
UniProt O15047: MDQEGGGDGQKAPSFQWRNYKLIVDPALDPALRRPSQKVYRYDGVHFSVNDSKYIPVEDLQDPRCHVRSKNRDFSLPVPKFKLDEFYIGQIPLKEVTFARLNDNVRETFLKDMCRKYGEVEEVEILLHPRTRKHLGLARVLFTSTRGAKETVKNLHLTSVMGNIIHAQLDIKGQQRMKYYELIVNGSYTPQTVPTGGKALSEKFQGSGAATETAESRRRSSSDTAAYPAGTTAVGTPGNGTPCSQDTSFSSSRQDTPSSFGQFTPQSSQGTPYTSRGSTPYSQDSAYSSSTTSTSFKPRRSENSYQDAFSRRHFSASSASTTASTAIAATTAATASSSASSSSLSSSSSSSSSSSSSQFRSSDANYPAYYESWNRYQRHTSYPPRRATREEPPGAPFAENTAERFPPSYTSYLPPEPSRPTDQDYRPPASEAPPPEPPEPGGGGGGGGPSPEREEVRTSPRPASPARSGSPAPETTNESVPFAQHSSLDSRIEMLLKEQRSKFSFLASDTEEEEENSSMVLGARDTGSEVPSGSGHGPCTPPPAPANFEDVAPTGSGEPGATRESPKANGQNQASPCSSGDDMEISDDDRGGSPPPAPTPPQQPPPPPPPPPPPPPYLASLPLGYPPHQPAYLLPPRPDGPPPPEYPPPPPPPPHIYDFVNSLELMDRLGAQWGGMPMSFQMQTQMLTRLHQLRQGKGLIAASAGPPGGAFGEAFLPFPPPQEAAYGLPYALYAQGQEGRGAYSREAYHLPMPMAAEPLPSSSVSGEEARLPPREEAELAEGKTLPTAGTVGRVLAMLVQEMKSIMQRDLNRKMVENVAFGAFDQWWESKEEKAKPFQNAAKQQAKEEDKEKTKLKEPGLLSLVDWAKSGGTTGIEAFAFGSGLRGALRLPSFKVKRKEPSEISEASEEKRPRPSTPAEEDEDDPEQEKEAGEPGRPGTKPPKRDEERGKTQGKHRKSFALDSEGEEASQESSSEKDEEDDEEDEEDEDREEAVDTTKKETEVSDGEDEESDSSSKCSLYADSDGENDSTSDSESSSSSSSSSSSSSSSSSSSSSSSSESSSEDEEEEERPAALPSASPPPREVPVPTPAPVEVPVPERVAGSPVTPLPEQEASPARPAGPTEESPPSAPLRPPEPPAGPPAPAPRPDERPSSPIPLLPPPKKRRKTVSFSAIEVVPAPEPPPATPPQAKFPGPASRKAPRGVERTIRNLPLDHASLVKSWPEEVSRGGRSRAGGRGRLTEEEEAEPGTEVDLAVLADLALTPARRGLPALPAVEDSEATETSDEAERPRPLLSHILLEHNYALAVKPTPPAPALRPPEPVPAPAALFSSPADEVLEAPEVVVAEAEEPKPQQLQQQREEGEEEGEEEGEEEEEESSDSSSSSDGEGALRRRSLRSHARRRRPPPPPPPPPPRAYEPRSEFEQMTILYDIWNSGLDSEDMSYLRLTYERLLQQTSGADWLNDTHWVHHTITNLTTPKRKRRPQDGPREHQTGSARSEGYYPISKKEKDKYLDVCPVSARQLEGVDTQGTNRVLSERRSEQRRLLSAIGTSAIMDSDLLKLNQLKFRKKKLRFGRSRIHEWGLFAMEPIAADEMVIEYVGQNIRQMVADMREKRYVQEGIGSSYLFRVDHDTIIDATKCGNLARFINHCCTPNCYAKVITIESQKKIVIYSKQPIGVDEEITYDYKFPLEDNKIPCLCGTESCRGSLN
UniProt Q9UMN6: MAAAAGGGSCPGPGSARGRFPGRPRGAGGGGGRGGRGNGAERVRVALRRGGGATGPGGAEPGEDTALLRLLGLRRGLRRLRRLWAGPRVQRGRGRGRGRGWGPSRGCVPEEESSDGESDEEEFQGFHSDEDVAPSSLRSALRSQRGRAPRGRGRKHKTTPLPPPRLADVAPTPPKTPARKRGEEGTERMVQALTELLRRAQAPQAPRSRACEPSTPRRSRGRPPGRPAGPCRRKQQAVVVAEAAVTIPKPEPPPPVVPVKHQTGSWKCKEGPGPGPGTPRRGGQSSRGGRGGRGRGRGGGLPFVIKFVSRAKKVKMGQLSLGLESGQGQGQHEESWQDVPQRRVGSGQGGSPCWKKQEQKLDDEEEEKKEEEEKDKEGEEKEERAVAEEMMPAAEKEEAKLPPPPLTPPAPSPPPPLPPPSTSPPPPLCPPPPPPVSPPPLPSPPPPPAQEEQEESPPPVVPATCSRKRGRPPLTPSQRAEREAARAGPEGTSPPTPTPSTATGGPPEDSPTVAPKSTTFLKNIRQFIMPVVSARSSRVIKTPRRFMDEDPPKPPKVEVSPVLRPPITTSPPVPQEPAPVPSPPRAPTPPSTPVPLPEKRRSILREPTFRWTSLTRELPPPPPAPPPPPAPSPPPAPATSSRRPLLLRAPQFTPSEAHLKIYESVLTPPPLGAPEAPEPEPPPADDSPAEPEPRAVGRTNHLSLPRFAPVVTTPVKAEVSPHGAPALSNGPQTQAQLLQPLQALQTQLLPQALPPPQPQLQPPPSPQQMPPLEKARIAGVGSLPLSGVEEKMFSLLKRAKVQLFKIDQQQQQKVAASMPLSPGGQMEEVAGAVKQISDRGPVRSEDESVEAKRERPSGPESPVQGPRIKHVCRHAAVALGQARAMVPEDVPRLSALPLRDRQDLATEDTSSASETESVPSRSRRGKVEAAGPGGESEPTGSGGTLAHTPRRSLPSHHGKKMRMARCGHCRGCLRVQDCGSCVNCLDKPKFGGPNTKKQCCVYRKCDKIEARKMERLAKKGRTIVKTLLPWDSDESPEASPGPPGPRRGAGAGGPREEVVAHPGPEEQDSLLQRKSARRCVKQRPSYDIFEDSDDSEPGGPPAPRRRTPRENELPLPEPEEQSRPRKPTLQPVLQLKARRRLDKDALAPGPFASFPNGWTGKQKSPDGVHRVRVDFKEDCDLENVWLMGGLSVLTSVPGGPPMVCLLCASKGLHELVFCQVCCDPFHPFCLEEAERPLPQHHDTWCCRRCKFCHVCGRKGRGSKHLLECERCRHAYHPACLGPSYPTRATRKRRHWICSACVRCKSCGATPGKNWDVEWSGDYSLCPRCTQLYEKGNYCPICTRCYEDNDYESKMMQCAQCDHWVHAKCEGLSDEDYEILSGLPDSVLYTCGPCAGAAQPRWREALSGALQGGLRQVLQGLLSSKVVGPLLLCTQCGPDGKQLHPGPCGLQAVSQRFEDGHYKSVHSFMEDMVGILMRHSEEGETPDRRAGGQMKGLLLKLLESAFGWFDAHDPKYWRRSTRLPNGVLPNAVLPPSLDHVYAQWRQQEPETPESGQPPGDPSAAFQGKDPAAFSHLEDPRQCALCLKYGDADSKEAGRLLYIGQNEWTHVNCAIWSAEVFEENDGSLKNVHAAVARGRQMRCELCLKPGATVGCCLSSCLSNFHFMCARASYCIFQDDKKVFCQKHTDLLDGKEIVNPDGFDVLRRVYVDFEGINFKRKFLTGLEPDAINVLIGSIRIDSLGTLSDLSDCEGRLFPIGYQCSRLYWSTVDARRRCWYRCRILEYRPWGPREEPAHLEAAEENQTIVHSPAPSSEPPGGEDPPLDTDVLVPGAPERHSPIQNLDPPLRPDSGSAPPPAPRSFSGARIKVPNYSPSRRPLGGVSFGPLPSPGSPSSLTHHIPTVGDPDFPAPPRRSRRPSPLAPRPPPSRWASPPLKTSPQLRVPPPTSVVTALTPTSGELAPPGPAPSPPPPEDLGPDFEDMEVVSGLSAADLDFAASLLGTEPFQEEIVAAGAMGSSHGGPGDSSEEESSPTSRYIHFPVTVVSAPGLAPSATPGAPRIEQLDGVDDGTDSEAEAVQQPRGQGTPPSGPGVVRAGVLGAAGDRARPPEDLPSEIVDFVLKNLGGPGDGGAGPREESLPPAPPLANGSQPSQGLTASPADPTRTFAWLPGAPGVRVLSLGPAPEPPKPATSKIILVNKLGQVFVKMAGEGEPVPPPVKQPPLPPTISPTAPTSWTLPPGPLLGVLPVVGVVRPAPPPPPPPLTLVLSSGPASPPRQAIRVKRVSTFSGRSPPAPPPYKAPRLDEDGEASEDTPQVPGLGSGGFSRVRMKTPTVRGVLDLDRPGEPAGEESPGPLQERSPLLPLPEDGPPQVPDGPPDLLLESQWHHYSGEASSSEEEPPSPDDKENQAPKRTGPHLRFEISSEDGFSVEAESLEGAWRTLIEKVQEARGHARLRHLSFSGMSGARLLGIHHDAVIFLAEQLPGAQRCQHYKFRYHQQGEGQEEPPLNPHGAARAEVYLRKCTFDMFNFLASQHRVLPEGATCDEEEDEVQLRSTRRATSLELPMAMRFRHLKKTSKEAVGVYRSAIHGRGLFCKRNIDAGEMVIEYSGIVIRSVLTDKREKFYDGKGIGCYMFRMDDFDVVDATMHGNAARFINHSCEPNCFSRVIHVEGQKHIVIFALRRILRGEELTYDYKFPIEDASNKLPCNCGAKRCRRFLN

No constants are given. Whether binding was seen depends on the method and setting. Binding seen in cells or lysates may run through a third protein. Some entries that bind do so weakly or less than the wild type.

For the assay, the target named is FLAG-GRWD1 (glutamate-rich WD repeat containing 1) (human (cDNA of 293T cells)) (UniProt Q9BQ67). Briefly: co-IP; FLAG-tagged bait expressed in 293T cells, anti-FLAG M2 affinity gel; lysates treated with Benzonase 1 h at 4°C and precleared with mouse IgG-agarose; endogenous prey detected by Western blot. On the technique in general: In western blotting, separated proteins are transferred to a membrane and probed.
Take “endogenous SET1A (from UniProt O15047 1-1707) (enzyme)”: the binding result is on record as “binds”. On to “endogenous MLL1 (from UniProt Q03164 1-3969) (enzyme)”, for which the binding result is “binds”. For “endogenous MLL2 (myeloid/lymphoid or mixed-lineage leukemia 2) (from UniProt Q9UMN6 1-2715) (enzyme)”, the binding result was “binds”.
